{"source": "PubChem BioAssay AID652259 (Drosophila RNAi Screening Center, 2013)", "assay": "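Genome-wide hunt for genes that control Wingless pathway activity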 (primary screen)", "cells": "Drosophila clone 8 imaginal disc epithelial cells", "reagents": "long dsRNA against Drosophila genes", "treatment": "pathway stimulated by co-transfected Wingless expression plasmid", "read-out": "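Dual luciferase reads per well after Wingless plasmid stimulation: reporter firefly light and Renilla control light; activity is firefly divided by Renilla, a ratio not deposited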", "direction": "firefly reporter light: higher = more Wg reporter light, before normalisation; Renilla control light: higher = more transfected or surviving cells", "rule for the call": "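Strong candidates differ from their plate mean by at least two out of four per-plate statistical tests; weak candidates meet just one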", "calls": "active = candidate regulator (raises or lowers reporter); inactive = not a candidate", "note": "The screen tested about 22,000 reagents; shown is a random part of those that have a named target and a result. In the full data, 233 (1.1%) got an active call. 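Light values are raw, unnormalised plate reads; the ratio scores behind the reporter calls were not deposited.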 A plus sign joins genes that one reagent is predicted to hit. Reagent sequences are not shown. The record does not give: the amount of reagent, the time to read-out, the dose of the treatment."}
{"predicted target": "Surf1", "DRSC id": "DRSC11295", "firefly reporter light, replicate 1": 1192, "firefly reporter light, replicate 2": 7157, "Renilla control light, replicate 1": 678, "Renilla control light, replicate 2": 2608, "outcome": "inactive"}
{"predicted target": "Surf1", "DRSC id": "DRSC11394", "firefly reporter light, replicate 1": 7195, "Renilla control light, replicate 1": 3607, "outcome": "inactive"}
{"predicted target": "AspRS", "DRSC id": "DRSC05914", "firefly reporter light, replicate 1": 9392, "Renilla control light, replicate 1": 2648, "outcome": "inactive"}
{"predicted target": "CG34354", "DRSC id": "DRSC13863", "firefly reporter light, replicate 1": 5520, "Renilla control light, replicate 1": 1860, "outcome": "inactive"}
{"predicted target": "CG34354", "DRSC id": "DRSC14515", "reporter change call, replicate 1": "Wg reporter activity raised", "firefly reporter light, replicate 1": 9483, "Renilla control light, replicate 1": 1176, "outcome": "active"}
{"predicted target": "CG34354", "DRSC id": "DRSC14558", "firefly reporter light, replicate 1": 6128, "Renilla control light, replicate 1": 930, "outcome": "inactive"}
{"predicted target": "CG34354", "DRSC id": "DRSC15645", "firefly reporter light, replicate 1": 7312, "Renilla control light, replicate 1": 3296, "outcome": "inactive"}
{"predicted target": "Ugt37B1", "DRSC id": "DRSC03225", "firefly reporter light, replicate 1": 3290, "firefly reporter light, replicate 2": 6844, "Renilla control light, replicate 1": 592, "Renilla control light, replicate 2": 2502, "outcome": "inactive"}
{"predicted target": "CG14322", "DRSC id": "DRSC14801", "firefly reporter light, replicate 1": 9782, "Renilla control light, replicate 1": 1850, "outcome": "inactive"}
{"predicted target": "Sfxn2", "DRSC id": "DRSC10718", "firefly reporter light, replicate 1": 13878, "Renilla control light, replicate 1": 5122, "outcome": "inactive"}
{"predicted target": "sgl", "DRSC id": "DRSC21431", "firefly reporter light, replicate 1": 7.24e5, "firefly reporter light, replicate 2": 6.56e5, "Renilla control light, replicate 1": 3.35e5, "Renilla control light, replicate 2": 2.89e5, "outcome": "inactive"}
{"predicted target": "Alms1b + Alms1a", "DRSC id": "DRSC18559", "firefly reporter light, replicate 1": 3058, "firefly reporter light, replicate 2": 6480, "Renilla control light, replicate 1": 1528, "Renilla control light, replicate 2": 1818, "outcome": "inactive"}
{"predicted target": "Pgk", "DRSC id": "DRSC00769", "firefly reporter light, replicate 1": 5691, "firefly reporter light, replicate 2": 9580, "Renilla control light, replicate 1": 1414, "Renilla control light, replicate 2": 3056, "outcome": "inactive"}
{"predicted target": "sNPF", "DRSC id": "DRSC02309", "firefly reporter light, replicate 1": 1971, "firefly reporter light, replicate 2": 7376, "Renilla control light, replicate 1": 640, "Renilla control light, replicate 2": 2380, "outcome": "inactive"}
{"predicted target": "CG14247", "DRSC id": "DRSC14742", "firefly reporter light, replicate 1": 9419, "Renilla control light, replicate 1": 3536, "outcome": "inactive"}
{"predicted target": "CG5039", "DRSC id": "DRSC15703", "firefly reporter light, replicate 1": 23146, "Renilla control light, replicate 1": 20298, "outcome": "inactive"}
{"predicted target": "dre4", "DRSC id": "DRSC08714", "reporter change call, replicate 1": "Wg reporter activity raised", "firefly reporter light, replicate 1": 13284, "Renilla control light, replicate 1": 2800, "outcome": "inactive"}
{"predicted target": "CG11779", "DRSC id": "DRSC14384", "firefly reporter light, replicate 1": 2484, "firefly reporter light, replicate 2": 6084, "Renilla control light, replicate 1": 568, "Renilla control light, replicate 2": 2340, "outcome": "inactive"}
{"predicted target": "frm", "DRSC id": "DRSC09753", "firefly reporter light, replicate 1": 8551, "firefly reporter light, replicate 2": 7.16e5, "Renilla control light, replicate 1": 3814, "Renilla control light, replicate 2": 3.27e5, "outcome": "inactive"}
{"predicted target": "DCTN5-p25", "DRSC id": "DRSC03525", "firefly reporter light, replicate 1": 2567, "firefly reporter light, replicate 2": 5827, "Renilla control light, replicate 1": 1004, "Renilla control light, replicate 2": 2234, "outcome": "inactive"}
{"predicted target": "sel", "DRSC id": "DRSC06232", "firefly reporter light, replicate 1": 12642, "Renilla control light, replicate 1": 3767, "outcome": "inactive"}
{"predicted target": "Targ2", "DRSC id": "DRSC21970", "firefly reporter light, replicate 1": 6.51e5, "firefly reporter light, replicate 2": 7.77e5, "Renilla control light, replicate 1": 3.04e5, "Renilla control light, replicate 2": 3.13e5, "outcome": "inactive"}
{"predicted target": "ND-75", "DRSC id": "DRSC18686", "firefly reporter light, replicate 1": 26245, "Renilla control light, replicate 1": 12640, "outcome": "inactive"}
{"predicted target": "CG11044", "DRSC id": "DRSC06026", "firefly reporter light, replicate 1": 12605, "Renilla control light, replicate 1": 2432, "outcome": "inactive"}
{"predicted target": "Polr2B", "DRSC id": "DRSC16831", "firefly reporter light, replicate 1": 8013, "Renilla control light, replicate 1": 1542, "outcome": "inactive"}
{"predicted target": "CG3492", "DRSC id": "DRSC04373", "firefly reporter light, replicate 1": 12023, "Renilla control light, replicate 1": 2971, "outcome": "inactive"}
{"predicted target": "CtsB", "DRSC id": "DRSC19361", "firefly reporter light, replicate 1": 2619, "firefly reporter light, replicate 2": 5389, "Renilla control light, replicate 1": 1094, "Renilla control light, replicate 2": 1740, "outcome": "inactive"}
{"predicted target": "Ugalt", "DRSC id": "DRSC18467", "firefly reporter light, replicate 1": 18028, "Renilla control light, replicate 1": 11451, "outcome": "inactive"}
{"predicted target": "CG4459", "DRSC id": "DRSC15582", "firefly reporter light, replicate 1": 21746, "Renilla control light, replicate 1": 4822, "outcome": "inactive"}
{"predicted target": "Cyp6t1", "DRSC id": "DRSC20564", "firefly reporter light, replicate 1": 19137, "Renilla control light, replicate 1": 14208, "outcome": "inactive"}
{"predicted target": "RasGAP1", "DRSC id": "DRSC11172", "firefly reporter light, replicate 1": 7139, "Renilla control light, replicate 1": 3095, "outcome": "inactive"}
{"predicted target": "X11Lbeta", "DRSC id": "DRSC18156", "firefly reporter light, replicate 1": 20753, "Renilla control light, replicate 1": 8988, "outcome": "inactive"}
{"predicted target": "X11Lbeta", "DRSC id": "DRSC18158", "firefly reporter light, replicate 1": 20105, "Renilla control light, replicate 1": 9189, "outcome": "inactive"}

Reagents above called active:
{"predicted target": "CG34354", "DRSC id": "DRSC14515", "reporter change call, replicate 1": "Wg reporter activity raised", "firefly reporter light, replicate 1": 9483, "Renilla control light, replicate 1": 1176, "outcome": "active"}
